Measurements taken from publication PMC5792032.
These are yes or no findings as the source states them, for the method shown. In cells and extracts the contact can be indirect. Binding calls can cover weak binding; strength is not graded here.

Legend:
Experiment in all cases: pull-down; Strep-Tactin purification of NS5A-OST from Huh7.5 cells electroporated with mJFH1-5A-OST RNA; bound resin blotted with anti-NS5A, anti-DGAT1 or anti-Rab18
[1] = target: NS5A-OST (JFH-1) P145A (hepatitis C virus, genotype 2a, JFH-1)
[2] = target: NS5A-OST (JFH-1) P35A (hepatitis C virus, genotype 2a, JFH-1)
[3] = target: NS5A-OST (JFH-1) V67A (hepatitis C virus, genotype 2a, JFH-1)

Measured: binding

B1: diacylglycerol acyltransferase-1 (protein, UniProt O75907 1-488)
chain: MGDRGSSRRRRTGSRPSSHGGGGPAAAEEEVRDAAAGPDVGAAGDAPAPAPNKDGDAGVGSGHWELRCHRLQDSLFSSDSGFSNYRGILNWCVVMLILSNARLFLENLIKYGILVDPIQVVSLFLKDPYSWPAPCLVIAANVFAVAAFQVEKRLAVGALTEQAGLLLHVANLATILCFPAAVVLLVESITPVGSLLALMAHTILFLKLFSYRDVNSWCRRARAKAASAGKKASSAAAPHTVSYPDNLTYRDLYYFLFAPTLCYELNFPRSPRIRKRFLLRRILEMLFFTQLQVGLIQQWMVPTIQNSMKPFKDMDYSRIIERLLKLAVPNHLIWLIFFYWLFHSCLNAVAELMQFGDREFYRDWWNSESVTYFWQNWNIPVHKWCIRHFYKPMLRRGSSKWMARTGVFLASAFFHEYLVSVPLRMFRLWAFTGMMAQIPLAWFVGRFFQGNYGNAAVWLSLIIGQPIAVLMYVHDYYVLNYEAPAAEA
binds: [1] | [2] | [3]
